Reference: publication PMC2576351

By UniProt entry, the sequences of proteins in these tests, tags left out.
UniProt Q13535: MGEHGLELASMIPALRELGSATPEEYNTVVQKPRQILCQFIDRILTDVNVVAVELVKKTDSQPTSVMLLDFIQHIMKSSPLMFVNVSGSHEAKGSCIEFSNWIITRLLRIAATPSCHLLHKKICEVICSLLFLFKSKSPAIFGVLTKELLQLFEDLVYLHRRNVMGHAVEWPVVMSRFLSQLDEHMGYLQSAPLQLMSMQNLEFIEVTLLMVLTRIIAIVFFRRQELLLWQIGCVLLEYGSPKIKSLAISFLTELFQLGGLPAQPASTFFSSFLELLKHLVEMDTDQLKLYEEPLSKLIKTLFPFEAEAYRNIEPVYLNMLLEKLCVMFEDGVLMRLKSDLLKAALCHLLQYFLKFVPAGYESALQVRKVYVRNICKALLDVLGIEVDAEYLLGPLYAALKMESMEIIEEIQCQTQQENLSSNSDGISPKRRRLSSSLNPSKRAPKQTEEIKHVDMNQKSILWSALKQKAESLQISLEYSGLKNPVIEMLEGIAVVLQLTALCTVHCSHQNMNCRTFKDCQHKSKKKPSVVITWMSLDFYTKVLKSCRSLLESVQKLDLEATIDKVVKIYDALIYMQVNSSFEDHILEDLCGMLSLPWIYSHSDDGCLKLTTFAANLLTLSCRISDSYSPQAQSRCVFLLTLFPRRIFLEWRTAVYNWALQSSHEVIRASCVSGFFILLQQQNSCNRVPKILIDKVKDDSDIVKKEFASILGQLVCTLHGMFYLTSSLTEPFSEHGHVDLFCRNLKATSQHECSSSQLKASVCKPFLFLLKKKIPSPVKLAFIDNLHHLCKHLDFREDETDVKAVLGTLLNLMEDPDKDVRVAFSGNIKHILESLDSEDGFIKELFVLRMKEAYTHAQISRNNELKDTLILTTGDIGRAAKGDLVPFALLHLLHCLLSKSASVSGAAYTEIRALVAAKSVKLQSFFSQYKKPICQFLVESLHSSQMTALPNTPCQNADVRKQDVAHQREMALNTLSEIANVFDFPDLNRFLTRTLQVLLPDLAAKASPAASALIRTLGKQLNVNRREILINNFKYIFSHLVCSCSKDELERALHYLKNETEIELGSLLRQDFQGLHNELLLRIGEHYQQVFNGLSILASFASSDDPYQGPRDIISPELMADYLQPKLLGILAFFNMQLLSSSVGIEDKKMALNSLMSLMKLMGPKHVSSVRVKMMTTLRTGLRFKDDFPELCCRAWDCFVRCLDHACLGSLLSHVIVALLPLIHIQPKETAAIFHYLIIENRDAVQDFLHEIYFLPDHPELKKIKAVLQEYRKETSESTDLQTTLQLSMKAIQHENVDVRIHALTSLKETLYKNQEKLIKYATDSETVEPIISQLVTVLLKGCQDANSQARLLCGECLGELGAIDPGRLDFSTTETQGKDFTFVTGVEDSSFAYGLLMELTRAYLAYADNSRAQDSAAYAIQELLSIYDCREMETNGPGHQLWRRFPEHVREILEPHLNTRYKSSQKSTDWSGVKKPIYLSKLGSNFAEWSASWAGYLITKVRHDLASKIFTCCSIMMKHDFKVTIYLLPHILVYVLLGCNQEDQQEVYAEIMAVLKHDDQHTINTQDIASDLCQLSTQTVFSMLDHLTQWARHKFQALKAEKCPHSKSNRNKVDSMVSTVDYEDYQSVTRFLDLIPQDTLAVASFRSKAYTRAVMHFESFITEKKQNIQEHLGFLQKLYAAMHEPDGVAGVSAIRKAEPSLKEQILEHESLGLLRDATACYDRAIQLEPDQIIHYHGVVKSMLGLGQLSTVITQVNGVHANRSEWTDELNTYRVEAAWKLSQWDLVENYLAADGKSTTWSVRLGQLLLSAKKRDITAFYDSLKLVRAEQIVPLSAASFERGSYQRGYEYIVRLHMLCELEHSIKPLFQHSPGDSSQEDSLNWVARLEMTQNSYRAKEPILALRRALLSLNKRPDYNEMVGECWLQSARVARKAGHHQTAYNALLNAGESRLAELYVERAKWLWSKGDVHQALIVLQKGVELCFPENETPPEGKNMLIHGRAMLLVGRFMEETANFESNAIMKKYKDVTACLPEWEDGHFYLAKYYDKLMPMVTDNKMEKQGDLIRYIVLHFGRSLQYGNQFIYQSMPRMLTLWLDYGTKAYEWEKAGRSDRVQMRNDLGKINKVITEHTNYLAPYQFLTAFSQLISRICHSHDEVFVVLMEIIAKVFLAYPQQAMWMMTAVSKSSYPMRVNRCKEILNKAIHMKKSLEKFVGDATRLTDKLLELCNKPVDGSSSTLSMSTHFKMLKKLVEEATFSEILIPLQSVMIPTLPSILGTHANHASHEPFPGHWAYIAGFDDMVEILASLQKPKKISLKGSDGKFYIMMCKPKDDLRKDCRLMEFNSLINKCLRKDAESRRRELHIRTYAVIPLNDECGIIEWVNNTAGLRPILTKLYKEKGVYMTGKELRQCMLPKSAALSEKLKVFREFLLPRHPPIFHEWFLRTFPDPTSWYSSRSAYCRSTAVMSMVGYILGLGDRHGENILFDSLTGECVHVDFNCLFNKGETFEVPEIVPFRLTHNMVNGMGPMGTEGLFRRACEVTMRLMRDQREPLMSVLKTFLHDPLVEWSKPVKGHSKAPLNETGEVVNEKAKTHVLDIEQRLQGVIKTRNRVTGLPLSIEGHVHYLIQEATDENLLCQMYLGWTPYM
UniProt P11387: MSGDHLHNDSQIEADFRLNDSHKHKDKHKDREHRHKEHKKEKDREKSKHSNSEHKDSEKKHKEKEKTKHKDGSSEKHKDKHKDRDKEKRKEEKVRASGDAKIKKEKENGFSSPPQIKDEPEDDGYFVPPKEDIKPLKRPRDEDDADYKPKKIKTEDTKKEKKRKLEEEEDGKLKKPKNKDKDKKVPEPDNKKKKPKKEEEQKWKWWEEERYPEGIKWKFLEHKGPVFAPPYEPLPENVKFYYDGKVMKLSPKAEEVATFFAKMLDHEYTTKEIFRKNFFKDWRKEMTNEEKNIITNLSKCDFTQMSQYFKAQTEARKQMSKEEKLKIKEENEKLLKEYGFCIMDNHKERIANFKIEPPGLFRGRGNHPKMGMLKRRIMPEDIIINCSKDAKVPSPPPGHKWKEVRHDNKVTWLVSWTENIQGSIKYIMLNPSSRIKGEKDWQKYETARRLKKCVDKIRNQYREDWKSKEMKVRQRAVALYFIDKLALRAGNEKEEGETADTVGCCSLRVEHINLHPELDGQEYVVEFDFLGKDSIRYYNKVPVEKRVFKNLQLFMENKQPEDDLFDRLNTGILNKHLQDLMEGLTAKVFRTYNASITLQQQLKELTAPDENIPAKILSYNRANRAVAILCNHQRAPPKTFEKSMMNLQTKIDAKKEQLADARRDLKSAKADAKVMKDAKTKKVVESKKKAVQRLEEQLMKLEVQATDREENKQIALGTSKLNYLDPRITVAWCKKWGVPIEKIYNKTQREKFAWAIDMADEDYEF
UniProt P12956: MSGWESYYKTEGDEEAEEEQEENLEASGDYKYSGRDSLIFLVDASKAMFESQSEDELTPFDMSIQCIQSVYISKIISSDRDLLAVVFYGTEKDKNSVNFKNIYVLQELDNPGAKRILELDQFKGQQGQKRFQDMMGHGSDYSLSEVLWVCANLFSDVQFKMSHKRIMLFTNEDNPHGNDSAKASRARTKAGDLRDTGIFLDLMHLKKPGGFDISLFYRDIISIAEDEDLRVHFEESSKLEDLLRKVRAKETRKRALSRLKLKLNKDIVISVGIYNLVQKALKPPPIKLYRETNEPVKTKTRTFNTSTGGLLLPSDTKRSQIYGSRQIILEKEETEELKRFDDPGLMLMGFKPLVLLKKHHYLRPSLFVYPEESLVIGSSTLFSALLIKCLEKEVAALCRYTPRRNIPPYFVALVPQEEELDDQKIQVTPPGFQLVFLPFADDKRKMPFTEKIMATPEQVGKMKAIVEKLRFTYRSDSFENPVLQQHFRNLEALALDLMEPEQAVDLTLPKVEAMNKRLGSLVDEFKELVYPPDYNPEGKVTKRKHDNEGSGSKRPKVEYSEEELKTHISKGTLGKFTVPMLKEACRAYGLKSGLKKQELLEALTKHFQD

Each substance was assayed against S-Tax-GFP (HTLV-1) (UniProt P03409) (assay: affinity purification with mass spectrometry; S-Tax-GFP bound to S-agarose beads incubated with pre-cleared Jurkat nuclear lysate, 4°C, 60 minutes, 25 mM HEPES pH 7.5, 150 mM NaCl, 1% NP-40, 10 mM MgCl2, 1 mM EDTA, 1% glycerol; on-bead trypsin digest, LC-MS/MS; three runs combined; S-GFP beads as control; only the target purified).

| Substance | binding |
| --- | --- |
| ATR (from UniProt Q13535 1-2644) | no binding |
| DNA-dependent Protein Kinase catalytic subunit (DNA-PKcs) (from UniProt P78527 1-4128) | binds |
| PARP (from UniProt P09874 1-1014) | binds |
| TOP1 (from UniProt P11387 1-765) | binds |
| Vimentin (from UniProt P08670 1-466) | binds |
| XRCC6 (from UniProt P12956 1-609) | binds |

These are yes or no findings as the source states them, for the method shown. Binding seen in cells or lysates may run through a third protein. Here binding means that the protein was enriched with, or labelled near, the bait; the list need not be complete. A no says only that the protein was not detected with the bait.
